Protein sequences, listed by entry. Tags and fused reporters are not part of them. Lines headed by an entry give the natural chain unless they say otherwise; changes in a name come on top.
UniProt Q00839, whole entry, looked up: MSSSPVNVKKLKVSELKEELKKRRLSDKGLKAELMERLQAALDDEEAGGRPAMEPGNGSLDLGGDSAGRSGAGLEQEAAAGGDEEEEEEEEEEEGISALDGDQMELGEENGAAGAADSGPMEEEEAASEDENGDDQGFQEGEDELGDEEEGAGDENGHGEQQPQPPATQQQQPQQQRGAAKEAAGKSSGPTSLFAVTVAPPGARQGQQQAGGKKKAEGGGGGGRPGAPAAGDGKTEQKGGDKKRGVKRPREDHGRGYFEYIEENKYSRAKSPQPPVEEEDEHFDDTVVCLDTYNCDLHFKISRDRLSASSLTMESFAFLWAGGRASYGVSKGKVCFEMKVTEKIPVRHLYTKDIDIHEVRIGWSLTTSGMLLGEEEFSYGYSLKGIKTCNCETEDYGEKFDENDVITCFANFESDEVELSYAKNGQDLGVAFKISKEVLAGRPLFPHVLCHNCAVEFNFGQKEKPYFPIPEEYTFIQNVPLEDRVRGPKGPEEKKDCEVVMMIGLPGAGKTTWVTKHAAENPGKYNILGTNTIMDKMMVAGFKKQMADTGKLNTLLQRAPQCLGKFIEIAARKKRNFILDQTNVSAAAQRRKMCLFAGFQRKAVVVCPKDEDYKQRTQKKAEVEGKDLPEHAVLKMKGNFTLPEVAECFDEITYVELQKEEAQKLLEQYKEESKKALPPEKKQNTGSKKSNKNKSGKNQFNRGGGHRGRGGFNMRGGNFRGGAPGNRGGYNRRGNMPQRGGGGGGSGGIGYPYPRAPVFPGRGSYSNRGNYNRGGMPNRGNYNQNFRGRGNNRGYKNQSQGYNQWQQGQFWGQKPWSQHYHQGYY
UniProt P48723: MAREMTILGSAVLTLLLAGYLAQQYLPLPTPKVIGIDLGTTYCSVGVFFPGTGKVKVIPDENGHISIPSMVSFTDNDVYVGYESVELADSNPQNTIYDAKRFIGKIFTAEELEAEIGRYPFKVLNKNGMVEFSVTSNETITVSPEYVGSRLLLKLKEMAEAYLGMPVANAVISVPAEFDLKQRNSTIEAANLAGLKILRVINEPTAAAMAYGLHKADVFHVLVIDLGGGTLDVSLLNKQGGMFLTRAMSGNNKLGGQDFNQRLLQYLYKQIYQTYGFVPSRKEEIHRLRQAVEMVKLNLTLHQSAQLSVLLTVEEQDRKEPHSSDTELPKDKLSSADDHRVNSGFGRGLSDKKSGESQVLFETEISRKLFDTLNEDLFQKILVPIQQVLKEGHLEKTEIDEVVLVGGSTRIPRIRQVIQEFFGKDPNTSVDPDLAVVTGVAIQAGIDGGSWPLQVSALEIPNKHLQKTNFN
UniProt P30519: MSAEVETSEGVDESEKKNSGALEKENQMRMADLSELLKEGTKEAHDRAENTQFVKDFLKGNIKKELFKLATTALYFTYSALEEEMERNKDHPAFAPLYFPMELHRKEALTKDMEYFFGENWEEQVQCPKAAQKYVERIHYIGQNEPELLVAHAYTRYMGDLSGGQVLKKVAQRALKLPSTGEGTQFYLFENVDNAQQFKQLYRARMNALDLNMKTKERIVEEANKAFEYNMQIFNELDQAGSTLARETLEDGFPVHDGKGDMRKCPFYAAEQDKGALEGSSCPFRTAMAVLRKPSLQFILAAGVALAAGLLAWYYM
UniProt Q14527: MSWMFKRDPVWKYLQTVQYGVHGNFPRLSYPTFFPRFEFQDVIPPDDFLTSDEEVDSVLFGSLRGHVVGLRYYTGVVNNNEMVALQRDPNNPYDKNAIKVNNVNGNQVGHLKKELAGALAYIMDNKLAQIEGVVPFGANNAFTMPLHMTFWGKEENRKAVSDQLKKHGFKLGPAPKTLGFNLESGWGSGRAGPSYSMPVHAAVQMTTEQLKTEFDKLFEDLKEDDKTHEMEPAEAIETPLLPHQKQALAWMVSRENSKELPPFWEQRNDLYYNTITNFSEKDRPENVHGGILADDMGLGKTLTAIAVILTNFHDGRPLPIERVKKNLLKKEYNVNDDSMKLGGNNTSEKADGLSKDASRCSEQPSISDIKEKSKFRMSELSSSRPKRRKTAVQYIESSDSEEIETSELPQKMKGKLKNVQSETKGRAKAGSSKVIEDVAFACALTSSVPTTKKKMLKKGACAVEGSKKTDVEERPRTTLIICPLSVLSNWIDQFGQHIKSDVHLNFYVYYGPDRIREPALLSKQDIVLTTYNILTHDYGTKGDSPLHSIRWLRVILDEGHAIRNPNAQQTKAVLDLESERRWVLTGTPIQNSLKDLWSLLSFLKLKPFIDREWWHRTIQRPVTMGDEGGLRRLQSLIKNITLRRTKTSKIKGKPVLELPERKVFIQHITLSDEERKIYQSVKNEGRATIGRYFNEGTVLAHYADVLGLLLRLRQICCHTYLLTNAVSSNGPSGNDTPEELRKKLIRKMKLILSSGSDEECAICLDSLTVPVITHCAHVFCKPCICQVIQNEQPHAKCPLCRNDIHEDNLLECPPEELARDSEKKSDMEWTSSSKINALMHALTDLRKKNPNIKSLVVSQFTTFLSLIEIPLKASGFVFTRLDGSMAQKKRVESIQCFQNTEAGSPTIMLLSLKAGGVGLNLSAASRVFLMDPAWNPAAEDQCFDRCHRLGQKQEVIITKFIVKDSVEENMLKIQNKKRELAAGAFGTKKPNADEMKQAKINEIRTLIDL
UniProt P34931, whole entry, looked up: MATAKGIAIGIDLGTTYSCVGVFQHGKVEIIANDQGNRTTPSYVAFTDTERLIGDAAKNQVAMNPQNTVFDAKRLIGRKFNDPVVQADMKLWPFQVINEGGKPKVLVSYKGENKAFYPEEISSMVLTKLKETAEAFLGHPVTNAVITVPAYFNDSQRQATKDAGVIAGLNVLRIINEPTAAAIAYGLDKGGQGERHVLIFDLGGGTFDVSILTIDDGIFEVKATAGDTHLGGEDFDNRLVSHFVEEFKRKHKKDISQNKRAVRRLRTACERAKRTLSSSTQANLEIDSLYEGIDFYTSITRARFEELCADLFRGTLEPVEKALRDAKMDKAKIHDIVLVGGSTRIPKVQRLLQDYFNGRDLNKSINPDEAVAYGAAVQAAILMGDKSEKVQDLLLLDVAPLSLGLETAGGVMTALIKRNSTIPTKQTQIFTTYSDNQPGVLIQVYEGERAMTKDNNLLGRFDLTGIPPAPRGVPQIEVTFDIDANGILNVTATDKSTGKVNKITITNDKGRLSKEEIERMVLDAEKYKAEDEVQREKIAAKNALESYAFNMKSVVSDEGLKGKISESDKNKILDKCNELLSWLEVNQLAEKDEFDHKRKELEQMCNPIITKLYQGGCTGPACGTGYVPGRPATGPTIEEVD
UniProt P38646: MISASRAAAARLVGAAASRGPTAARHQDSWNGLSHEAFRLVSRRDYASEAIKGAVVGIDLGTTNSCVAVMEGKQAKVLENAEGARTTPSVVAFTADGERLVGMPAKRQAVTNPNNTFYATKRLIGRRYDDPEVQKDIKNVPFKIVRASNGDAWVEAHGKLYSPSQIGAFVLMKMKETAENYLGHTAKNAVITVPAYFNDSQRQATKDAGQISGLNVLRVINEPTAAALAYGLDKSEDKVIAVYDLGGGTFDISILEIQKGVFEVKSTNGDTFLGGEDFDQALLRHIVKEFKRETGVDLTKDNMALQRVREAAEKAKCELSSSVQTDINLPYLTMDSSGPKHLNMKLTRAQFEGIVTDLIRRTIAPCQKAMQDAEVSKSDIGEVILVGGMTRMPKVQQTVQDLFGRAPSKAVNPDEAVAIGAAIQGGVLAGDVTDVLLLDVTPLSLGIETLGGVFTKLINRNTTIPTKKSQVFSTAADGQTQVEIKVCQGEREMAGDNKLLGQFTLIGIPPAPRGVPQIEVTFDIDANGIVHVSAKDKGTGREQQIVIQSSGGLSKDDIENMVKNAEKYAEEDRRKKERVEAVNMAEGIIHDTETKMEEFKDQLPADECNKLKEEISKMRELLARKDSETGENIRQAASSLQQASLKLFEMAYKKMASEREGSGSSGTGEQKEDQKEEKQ
UniProt O43464: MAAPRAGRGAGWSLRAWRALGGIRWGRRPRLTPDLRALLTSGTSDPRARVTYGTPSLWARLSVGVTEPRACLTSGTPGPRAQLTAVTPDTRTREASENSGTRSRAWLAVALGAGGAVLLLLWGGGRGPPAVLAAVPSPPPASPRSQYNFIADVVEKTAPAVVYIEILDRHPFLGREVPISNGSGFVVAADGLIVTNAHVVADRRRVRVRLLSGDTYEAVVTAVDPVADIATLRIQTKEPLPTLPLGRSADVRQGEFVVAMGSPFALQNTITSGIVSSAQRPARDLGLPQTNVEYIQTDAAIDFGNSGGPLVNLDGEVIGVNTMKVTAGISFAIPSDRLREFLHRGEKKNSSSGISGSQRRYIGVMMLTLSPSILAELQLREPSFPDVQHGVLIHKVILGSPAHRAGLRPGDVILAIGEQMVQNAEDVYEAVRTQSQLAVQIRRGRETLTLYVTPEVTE
UniProt P17096: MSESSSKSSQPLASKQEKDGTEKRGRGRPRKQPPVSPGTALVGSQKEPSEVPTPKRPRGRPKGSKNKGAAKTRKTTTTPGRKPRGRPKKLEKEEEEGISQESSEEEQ
UniProt Q9BX68: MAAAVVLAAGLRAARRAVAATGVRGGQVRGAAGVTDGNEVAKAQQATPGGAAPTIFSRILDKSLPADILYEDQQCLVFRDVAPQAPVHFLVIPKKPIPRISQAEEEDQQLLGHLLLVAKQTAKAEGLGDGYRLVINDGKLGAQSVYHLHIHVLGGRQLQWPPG
UniProt Q9BW71: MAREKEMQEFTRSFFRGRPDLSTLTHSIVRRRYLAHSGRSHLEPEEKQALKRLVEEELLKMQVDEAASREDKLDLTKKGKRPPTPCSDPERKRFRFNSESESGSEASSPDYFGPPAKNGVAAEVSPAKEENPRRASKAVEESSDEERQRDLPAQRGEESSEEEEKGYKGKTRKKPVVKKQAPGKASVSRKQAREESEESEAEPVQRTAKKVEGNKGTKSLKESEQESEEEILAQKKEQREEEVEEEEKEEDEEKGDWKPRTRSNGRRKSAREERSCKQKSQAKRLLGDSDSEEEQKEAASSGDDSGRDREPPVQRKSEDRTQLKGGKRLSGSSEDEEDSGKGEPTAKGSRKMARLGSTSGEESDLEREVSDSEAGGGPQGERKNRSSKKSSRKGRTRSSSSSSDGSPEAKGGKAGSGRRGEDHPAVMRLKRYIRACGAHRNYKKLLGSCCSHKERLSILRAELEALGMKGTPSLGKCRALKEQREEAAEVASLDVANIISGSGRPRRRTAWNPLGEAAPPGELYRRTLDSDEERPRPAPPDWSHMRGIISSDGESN
UniProt Q9NX55: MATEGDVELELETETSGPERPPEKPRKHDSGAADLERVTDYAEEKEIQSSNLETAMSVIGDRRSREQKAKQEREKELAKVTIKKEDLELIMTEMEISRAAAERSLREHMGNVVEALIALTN
UniProt Q9NZL4: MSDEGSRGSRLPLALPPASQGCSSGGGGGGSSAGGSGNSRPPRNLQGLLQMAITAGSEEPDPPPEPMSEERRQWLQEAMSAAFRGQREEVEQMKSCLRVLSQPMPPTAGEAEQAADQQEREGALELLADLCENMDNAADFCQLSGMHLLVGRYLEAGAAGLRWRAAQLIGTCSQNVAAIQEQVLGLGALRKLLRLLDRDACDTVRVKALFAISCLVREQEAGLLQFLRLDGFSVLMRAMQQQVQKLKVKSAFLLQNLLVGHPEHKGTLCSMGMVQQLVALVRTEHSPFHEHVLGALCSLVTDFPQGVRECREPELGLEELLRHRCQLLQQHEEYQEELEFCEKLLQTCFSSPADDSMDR
UniProt Q9BUJ2: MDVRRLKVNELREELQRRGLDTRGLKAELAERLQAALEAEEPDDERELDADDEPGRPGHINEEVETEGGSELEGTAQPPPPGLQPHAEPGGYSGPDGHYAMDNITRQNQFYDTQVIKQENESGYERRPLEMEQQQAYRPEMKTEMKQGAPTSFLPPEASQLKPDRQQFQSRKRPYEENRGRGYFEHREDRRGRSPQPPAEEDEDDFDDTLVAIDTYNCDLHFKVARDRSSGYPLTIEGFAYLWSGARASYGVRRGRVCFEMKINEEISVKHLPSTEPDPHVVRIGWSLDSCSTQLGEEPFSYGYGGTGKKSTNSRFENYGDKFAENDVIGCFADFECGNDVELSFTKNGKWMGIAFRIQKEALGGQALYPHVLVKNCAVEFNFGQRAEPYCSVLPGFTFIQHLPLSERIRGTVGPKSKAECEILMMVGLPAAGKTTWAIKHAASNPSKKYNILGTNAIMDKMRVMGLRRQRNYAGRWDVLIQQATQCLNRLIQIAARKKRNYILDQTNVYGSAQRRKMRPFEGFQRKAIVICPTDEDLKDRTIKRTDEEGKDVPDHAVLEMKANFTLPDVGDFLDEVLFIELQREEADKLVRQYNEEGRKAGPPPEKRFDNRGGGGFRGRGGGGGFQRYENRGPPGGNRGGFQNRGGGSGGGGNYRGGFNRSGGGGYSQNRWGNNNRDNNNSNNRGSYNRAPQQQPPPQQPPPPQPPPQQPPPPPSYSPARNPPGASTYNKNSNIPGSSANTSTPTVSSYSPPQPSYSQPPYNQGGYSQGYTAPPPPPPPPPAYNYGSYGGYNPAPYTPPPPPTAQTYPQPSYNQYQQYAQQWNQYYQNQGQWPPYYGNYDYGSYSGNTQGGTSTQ

Some of the results follow.
The targets below were run with FC(F)(F)c1ccc(/C=C/c2nc(COc3ccc(CCCCn4ccnn4)cc3)co2)cc1 [mubritinib] (assay: log2 fold change, soluble protein after heating vs DMSO (PISA); higher = thermal stabilisation; K562 cells, 10 uM, 30 min; active = over 0.2 and 3.5 SD of the protein, either way, in both replicates (recomputed)).
Method in brief: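 Soluble protein was defined as the supernatant after 21,000xg for 90 min. It came from K562 cells at 2×10^6 cells/mL given 10 μM compound for 30 min, heated in aliquots for 3 min across 48°C-58°C, pooled, and extracted in PBS with 0.5% NP-40 at 4°C, and was quantified by TMTpro 16plex LC-MS/MS with equalised channel sums. Thermal stability against control samples, from duplicates, is reported as log2 fold change.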
For HNRNPK isoform 2 (UniProt P61978), the log2 fold change was inactive: -0.024. For HNRNPU (UniProt Q00839), the log2 fold change was inactive: -0.239. For HSPA13 (UniProt P48723), the log2 fold change was inactive: -0.034. HNRNPR isoform 2 (UniProt O43390) was tested, and the log2 fold change was inactive: -0.039. In the case of HIST2H3A (UniProt Q71DI3), the log2 fold change is reported as inactive: -0.037. With HIBCH (UniProt Q6NVY1) the log2 fold change was inactive: -0.028. For HNRNPA1 (UniProt P09651), the log2 fold change was inactive: -0.208. HMOX2 (UniProt P30519) was tested, and the log2 fold change was inactive: 0.062. HOOK3 (UniProt Q86VS8) was tested, and the log2 fold change was inactive: -0.024. With HIBADH (UniProt P31937) the log2 fold change was inactive: -0.004. In the case of HMGN4 (UniProt O00479), the log2 fold change is reported as inactive: -0.07. For HIC2 (UniProt Q96JB3), the log2 fold change was inactive: -0.051. In the case of HMGCS1 (UniProt Q01581), the log2 fold change is reported as inactive: -0.1. HLTF (UniProt Q14527) was tested, and the log2 fold change was inactive: 0.051. In the case of HSPA1L (UniProt P34931), the log2 fold change is reported as inactive: -0.101. With HSPA5 (UniProt P11021) the log2 fold change was inactive: -0.025. In the case of HSPA9 (UniProt P38646), the log2 fold change is reported as inactive: -0.049. For HTRA2 (UniProt O43464), the log2 fold change was inactive: 0.047. In the case of HMGA1 (UniProt P17096), the log2 fold change is reported as inactive: -0.029. HSPB1 (UniProt P04792) was tested, and the log2 fold change was inactive: -0.029. For HINT2 (UniProt Q9BX68), the log2 fold change was inactive: 0.061. In the case of HNRNPH3 (UniProt P31942), the log2 fold change is reported as inactive: -0.247. With HNRNPD (UniProt Q14103) the log2 fold change was inactive: -0.088. HNRNPA3 (UniProt P51991) was tested, and the log2 fold change was inactive: -0.262. With HMGB3 (UniProt O15347) the log2 fold change was inactive: 0.01. With HTATSF1 (UniProt O43719) the log2 fold change was inactive: 0.062. With HGH1 (UniProt Q9BTY7) the log2 fold change was inactive: -0.005. HIRIP3 (UniProt Q9BW71) was tested, and the log2 fold change was inactive: 0.027. For HYPK (UniProt Q9NX55), the log2 fold change was inactive: 0.001. In the case of HNRNPDL (UniProt O14979), the log2 fold change is reported as inactive: -0.087. For HSPBP1 isoform 3 (UniProt Q9NZL4), the log2 fold change was inactive: 0.05. With HKDC1 (UniProt Q2TB90) the log2 fold change was inactive: 0.107. HNRNPUL1 (UniProt Q9BUJ2) was tested, and the log2 fold change was active: -0.231.
